Data on nine molecules can be found in PMC6791687.

These are yes or no findings as the source states them, for the method shown. In cells and extracts the contact can be indirect. These calls come from enrichment with a bait or labelling near it, and not all partners need be listed.

T1: FAMA-TbID-Venus (FAMApro::FAMA-TbID-mVenus in fama-1) (Arabidopsis thaliana) (UniProt Q56YJ8)
T1 sequence: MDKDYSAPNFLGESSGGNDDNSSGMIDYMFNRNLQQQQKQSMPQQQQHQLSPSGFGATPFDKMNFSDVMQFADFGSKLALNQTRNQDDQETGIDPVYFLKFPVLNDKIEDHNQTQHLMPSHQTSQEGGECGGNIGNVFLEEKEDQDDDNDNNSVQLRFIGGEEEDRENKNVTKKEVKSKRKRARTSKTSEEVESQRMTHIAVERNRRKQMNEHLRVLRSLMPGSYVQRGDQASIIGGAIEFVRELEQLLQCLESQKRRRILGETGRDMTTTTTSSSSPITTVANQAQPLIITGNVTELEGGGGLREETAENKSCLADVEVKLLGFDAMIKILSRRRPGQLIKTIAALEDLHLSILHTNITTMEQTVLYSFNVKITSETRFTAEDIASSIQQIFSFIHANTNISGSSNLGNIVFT

B1: FMO (protein, UniProt Q9FWW9 1-465)
chain: MATSHPDPTTSRHVAVIGAGAAGLVAARELRREGHSVVVLERGSQIGGVWAYTSQVEPDPLSLDPTRPVVHSSLYRSLRTNIPRECMGFTDFPFATRPHDGSRDPRRHPAHTEVLAYLRDFAKEFDIEEMVRFETEVVKAEQVAAEGEERGKWRVESRSSDGVVDEIYDAVVVCNGHYTEPRHALITGIDSWPGKQIHSHNYRVPDQFKDQVVIVIGSSASGVDICRDIAQVAKEVHVSSRSTSPDTYEKLTGYENLWLHSTIQIAREDGSVVFENGKTIYADTIMHCTGYKYYFPFLDTKGEVTVDDNRVGPLYKHVFPPALAPSLSFIGLPWQITPFPMFELQSKWVAAVLSGRVSLPSQDEMMEDTKAFYDKLEASGIPKRYTHLMPDDSQFEYDNWLADQCEYPRIEKWREQMFYIGFKRIYAQSSTYRDNWDDDHLIVEAYDDFVKFMSSYQELLPMLKT
B2: HAP1 (protein, UniProt O23676 1-150)
chain: MAAEEATEFYLRYYVGHKGKFGHEFLEFEFREDGKLRYANNSNYKNDTIIRKEVFLTPAVLKECKRIVSESEILKEDDNNWPEPDRVGKQELEIVLGNEHISFATSKIGSLVDCQSSNDPEGLRIFYYLVQDLKCLVFSLISLHFKIKPI
B3: MED16 (protein, UniProt F4JGZ1 1-1278)
chain: MNQQNPEEEVSLVNNSGGGGIIEAPAIVEEKEEEGLQQKQEETIESTDPILVVVEEKLLEKSVDGEKEDDNSSSSNMEIDPVSPATVFCVKLKQPNSNLLHKMSVPELCRNFSAVAWCGKLNAIACASETCARIPSSKANTPFWIPIHILIPERPTECAVFNVVADSPRDSVQFIEWSPTSCPRALLIANFHGRITIWTQPTQGSANLVHDATSWQCEHEWRQDIAVVTKWLTGASPYRWLSSKPSSGTNAKSTFEEKFLSQSSESSARWPNFLCVCSVFSSGSVQIHWSQWPSNQGSTAPKWFSTKKGLLGAGPSGIMAADAIITDSGAMHVAGVPIVNPSTIVVWEVTPGPGNGLQATPKISTGSRVPPSLSSSSWTGFAPLAAYLFSWQEYLISEIKQGKKPSDQDSSDAISLSCSPVSNFSAYVSPEAAAQSAATTTWGSGVTAVAFDPTRGGSVIAVVIVEGQYMSPYDPDEGPSITGWRVQRWESSVQPVVLHQIFGNPTSNFGGQVPTQTVWVSRVDMSIPPTKDFKNHQVAAAGPSVDAPKEPDSGDEKANKVVFDPFDLPSDIRTLARIVYSAHGGEIAIAFLRGGVHIFSGPTFSPVENYQINVGSAIAAPAFSPTSCCSASVWHDAAKDCAMLKIIRVLPPALPRNQSKVDQSTWERAIAERFWWSLLVGVDWWDAVGCTQSAAEDGIVSLNSVIAVMDADFHSLPSTQHRQQYGPNLDRIKCRLLEGTNAQEVRAMVLDMQARLLLDMLGKGIESALVNPSALVFEPWRVDGETITGINPEAMAVDPALVSSIQAYVDAVLDLASHFITRLRRYASFCRTLASHAASAGTGSNRNNVTSPTQNASSPATPQVFPDKSLYLAVGQPTTTTTTTATTNSSGSSHVQAWMQGAIAKISSSNDGSNSTASPISGSPTFMPISINTGTFPGTPAVRLIGDCHFLHRLCQLLLFCFLQRSSRFPQRNADVSSQKLQTGATSKLEEVNSAKPTPALNRIEDAQGFRGAQLGTGVKGIDENSARTTKMGSGNAGQGYTYEEVRVLFHILMDLCKRTSGLAHPLPGSQVGSGNIQVRLHYIDGNYTVLPEVVEAALGPHMQNMPRPRGADAAGLLLRELELHPPSEEWHRRNLFGGPGSEPEDMILTDDVSKLSNSLDLPDTNFSGICDGYNRVHSLWPRKRRMSERDAAFGSNTSVGLGAYLGIMGSRRDVVTATWKTGLEGVWYKCIRCLRQTSAFASPGATKQPNPNERETWWTSRWVYCCPMCGGTWVRVV
B4: FIP37 (protein, UniProt Q9ZSZ8 1-330)
chain: MEFSSQDDDFGGDDSAANATRASGNRRSFGDLEDDEDDIFGSTTVAPGVRTGMILSLRGSLKNCKDDLASCQNELESAKTEIQKWKSAFQNESFVPAGKSPEPRFLIDYIQNLKSSEKSLKEQLEIAKRKEASCIVQYAKREQEMAELKSAVRDLKSQLKPASMQARRLLLDPAIHEEFSRLKNLVEEKDKKIKELQDNIAAVTFTPQSKNGKMLMAKCRTLQEENEEIGHQAAEGKIHELAIKLAMQKSQNAELRSQFEGLYKHMEELTNDVERSNETVIILQEKLEEKEKEIERVKKGLEIVSELVGDKKDEVDEIDEDAKEEIAGGE
B5: UGE3 (protein, UniProt Q8LDN8 1-351)
chain: MGSSVEQNILVTGGAGFIGTHTVVQLLNQGFKVTIIDNLDNSVVEAVHRVRELVGPDLSTKLEFNLGDLRNKGDIEKLFSNQRFDAVIHFAGLKAVGESVGNPRRYFDNNLVGTINLYETMAKYNCKMMVFSSSATVYGQPEIVPCVEDFELQAMNPYGRTKLFLEEIARDIHAAEPEWKIILLRYFNPVGAHESGRIGEDPKGIPNNLMPYIQQVAVGRLPELNVFGHDYPTMDGSAVRDYIHVMDLADGHVAALNKLFSDSKIGCTAYNLGTGQGTSVLEMVSSFEKASGKKIPIKLCPRRAGDATAVYASTQKAEKELGWKAKYGVDEMCRDQWNWANKNPWGFQKKP
B6: CPH (protein, UniProt Q9LM02 1-336)
chain: MDLASNLGGKIDKSDVLTAVEKYEQYHVFHGGNEEERKANYTDMVNKYYDLATSFYEYGWGESFHFAQRWKGESLRESIKRHEHFLALQLGIQPGQKVLDVGCGIGGPLREIARFSNSVVTGLNNNEYQITRGKELNRLAGVDKTCNFVKADFMKMPFPENSFDAVYAIEATCHAPDAYGCYKEIYRVLKPGQCFAAYEWCMTDAFDPDNAEHQKIKGEIEIGDGLPDIRLTTKCLEALKQAGFEVIWEKDLAKDSPVPWYLPLDKNHFSLSSFRLTAVGRFITKNMVKILEYIRLAPQGSQRVSNFLEQAAEGLVDGGRREIFTPMYFFLARKPE
B7: CER26-LIKE (protein, UniProt Q9LIS1 1-420)
chain: MGLVQEEGSGPVHGFRLSTVSASLPSETGTTHEPTGLDLAMKLHYLKAVYIYSAGTARDLTVMDVKAPLFSVFYQIPCIIGRFRRHESGRPYLKCNDCGTRFVESHCDLTVEEWLRVPDRSVDESLVYHQPVGPDLAFSPLLYIQMTRFSCGGLALGLSWAHIMGDPFSLSHFFNLWAQAFAGGKIYCPKTSVTERDFQNPTSTFKKPDSVKQVDLVGDLWVAPNNSKMTTFSFNLTVNDLKTHFPVNGDGEFEILTGIIWKCVATVRGESAPVTITVIRSDPKKLKPRAVRNGQMISSIHVDFSVAEASLEEIVKSIGEAKDERVVIDEIVDDVSDFIVYGANLTFVDMSEVDFYEAKVMGKSPESVYCNVQGIGDDGAVVVLPGVVEEERVVTVTLPVDEIEKVKWEMKKCGLITPLV
B8: KNAT4 (protein, UniProt P48001 1-393)
chain: MAFHNNHFNHFTDQQQHQPPPPPQQQQQQHFQESAPPNWLLRSDNNFLNLHTAASAAATSSDSPSSAAANQWLSRSSSFLQRGNTANNNNNETSGDVIEDVPGGEESMIGEKKEAERWQNARHKAEILSHPLYEQLLSAHVACLRIATPVDQLPRIDAQLAQSQNVVAKYSTLEAAQGLLAGDDKELDHFMTHYVLLLCSFKEQLQQHVRVHAMEAVMACWEIEQSLQSFTGVSPGEGTGATMSEDEDEQVESDAHLFDGSLDGLGFGPLVPTESERSLMERVRQELKHELKQGYKEKIVDIREEILRKRRAGKLPGDTTSVLKSWWQSHSKWPYPTEEDKARLVQETGLQLKQINNWFINQRKRNWHSNPSSSTVSKNKRRSNAGENSGRDR
B9: PHL (protein, UniProt F4IDB2 1-1325)
chain: MGVSFKISKVGRKFRPKISTELATPDSPKAIVLSGKPKATDDSNIGDVSGFSKPSLPDISPDHEVSFILSLYPNGYSIGKTSEAMQQISFRDVPKVLHPYDRAAEGLLSAIEAGRLPGDILEDIPCKFVDGVVICEVHDYRKHTSSQVSPVINKLRLKMSLENVVKDIPSMSDNSWTYGDLMEVESRILKALQPELCLDPLPRLDRLSKNPLTAKLDLSLSTLRRKRLRQMAEVTVMSQNKIQGKKVCIDRLPESSERGNLPGHLIMQQTNNNQAIQNLGTNMLAGLRSQPLQDAPNSSLALVPPQQQRYMGIGSTRNTQDQGSNSVSVSGASPGGLDAMLPYGSDSMNPGTSFHRKRESQEGQMSSMPGLNKRTRVSHMGPDGVPQQQLGQRMDGLHGSDTNWKNTLLQHQDMLGRSIQYPNTSIQRFSPHQMEGVMNQEGGPMQFPASQQGGMKYTSKEEPFETGKIDGGTRNNIPGVGSDANDLDPRIQSRMPHNAFIRSNFPQTSWNVNPGQQIEKEPKKEEQFSRRISAQSPRLSAGGPPQSPLSSKSGEFSGGSMGTHYGAVAAAQKDKAVTSIPAIGATQSVGSSANEAMQQRQHQAQMAAKRRTNSLPKTQVISTVGSPVSVNTISVPVNARSPSVGPQTLGDHAILDRFSKIERVAARYQLNCKKHKVDEYSRRPRVYAKQPLTVCLSNLSNEEVFKDEDEALSKSIFGGSMNTYKTRVIHFGQMERVMQGSVPSFIPRNRTRLVMSEKAVDGTVAWYQGDVDEGDVFQAEDFLLALPNTHIADLLATQFKSLMAREGYMIEEHIMAKPNRGDTGPISSHPNSAGGYPRGYSANDMQQYGDAVAGQASGEASKHGNTGNTPNNSTQNILANARMVPPTNSQALQMSQGLLSGVSMPMQPQQLDPQQSALLSSHSQQKNQQSMFTQQQHPQMQRPSMILPTNPLSAINSMSQSSGMQPGGQMANKYSPLQLQMLQQQQQAAVQKKIMMGLGSGVGMGMGMGMGMGMGSMGNSIAGLGALGNQLNMAGRGMGGTGISSSMSVPGIGNMGQNPMNLNPASNLNAISQQLRSGALTPQQNALFTQIRMGMANRGGVMGAPQTGISGVSGTRQMHPSSAGLSMLDQNRANLQRAAAMGNMGPPKLMPGMMNLYMNQQQQQQQLQQQPQQQQLQHQQQLQQPMSQPSQQLAQSPQQQQQLQQHEQPQQAQQQQQATASPLQSVLSPPQVGSPSAGITQQQLQQSSPQQMSQRTPMSPQQVNQRTPMSPQISSGAMHPMSTSNLEGCPASPQLSSQTMGSVGSITNSPMELQGPKNNSAGNNS

The assay has as its target T1, FAMA-TbID-Venus (FAMApro::FAMA-TbID-mVenus in fama-1) (Arabidopsis thaliana). As to the kind of experiment: proximity labelling; FAMApro::FAMA-TbID-Venus in 5-day-old Arabidopsis seedlings, 50 uM biotin for 0, 0.5 or 3 h; biotinylated proteins purified on streptavidin beads, on-bead digest, LC-MS/MS with label-free quantification; filtered for enrichment against WT, nuclear TbID (FAMAnucTbID) and untreated samples; three biological replicates.
As to B1, the binding result is listed as “binds”.
The result for B2 reads “binds”; that for B3, “binds”.
The result for B4 reads “binds”.
The result for B5 reads “binds”; that for B6, “binds”.
Take B7: the binding entry is “binds”.
The value for B8 was “binds”; that for B9 was “binds”.
